We go through 42 sequences from article PMC7819943, “Rice protein-binding microarrays: a tool to detect cis-acting elements near promoter regions in rice”.

Amino acid sequences for entries named in this document (tags omitted).
UniProt Q0JBA9, entry or part of it: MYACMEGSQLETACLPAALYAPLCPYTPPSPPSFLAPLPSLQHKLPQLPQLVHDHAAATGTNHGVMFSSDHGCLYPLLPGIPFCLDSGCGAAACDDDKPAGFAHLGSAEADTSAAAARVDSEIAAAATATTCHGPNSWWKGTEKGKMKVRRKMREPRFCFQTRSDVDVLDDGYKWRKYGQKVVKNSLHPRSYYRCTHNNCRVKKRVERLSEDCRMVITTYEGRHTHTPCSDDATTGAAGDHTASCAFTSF

Some of the results follow.

The target in the assay is OsWRKY34 (Oryza sativa, UniProt Q0JBA9 1-250). The assay can be described thus: protein-binding microarray (RPBM); PBS, 2% BSA, 51.3 ng/ul salmon testes DNA, 50 uM zinc acetate, 200 nM TF, 25 C, 1 h; high values mean tight binding. As to conditions: protein: recombinant; tags: N-terminal polyhistidine and DsRed monomer fusion (pET32a); label: CyDye5-dUTP incorporated in the synthesized complementary strand; 3' TTTTT single-stranded linker to array surface; dsDNA, one strand shown. In a few lines: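 Transcription factors, each fused N-terminally to a polyhistidine tag and DsRed, were expressed in E. coli BL21-CodonPlus and purified on Ni–NTA. A custom Agilent array was made double-stranded by primer extension with Cy5-dUTP and blocked with 2% BSA. It was incubated with 200 nM protein in PBS, 2% BSA, salmon testes DNA and 50 µM zinc acetate at 25 °C for 1 h, then washed. The binding signal is per-feature fluorescence intensity (arbitrary units) read on an Axon 4000B scanner.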
Turning to “CGGCCCAAAGTTTATCTTCTTTCCTTCTGACTTCTTTGTGCGGAGTCACCTAGTGCAG”, the binding signal was 8950 fluorescence intensity (a.u.). Turning to “CAGATCCCTTAACTTTACACCAAATCCGATTTTCGTTCTTCGGAGTCACCTAGTGCAG”, the binding signal was 8060 fluorescence intensity (a.u.).

On to “TGTTTTTTCTAGTTTCTTATGAGTCATTCCTAGCAAATTTCGGAGTCACCTAGTGCAG”, for which the binding signal was 11200 fluorescence intensity (a.u.). For the sequence “GCCAATCCGCCGCCGCCACCTCACCCAACCAATCCGCCGCCGGAGTCACCTAGTGCAG”, the binding signal is 9900 fluorescence intensity (a.u.). With “TATTTTTATGGGAATCGGATCTAGCTTTTTTTCACTTTTTCGGAGTCACCTAGTGCAG”, the binding signal is 9350 fluorescence intensity (a.u.). As for “ACATTGGCCCCAGTTCATCAGTTAGAACGTGTTCACTTTTCGGAGTCACCTAGTGCAG”, the binding signal is 11200 fluorescence intensity (a.u.). The figure for “CCCCGTTTGACCGCTTCGTCTCGTACTAGTACTACCGTCTCGGAGTCACCTAGTGCAG” is 10200 fluorescence intensity (a.u.). The figure for “ATCCGTTCTCATCTCGTATATTTCTGAGGAAATAAAACTTCGGAGTCACCTAGTGCAG” is 9110 fluorescence intensity (a.u.). The figure for “CCGATCCCCTTCCTCTATTTCTTTCGTTTCTTTTTTTTTTCGGAGTCACCTAGTGCAG” is 8250 fluorescence intensity (a.u.); for “TGTGCTCTCGTCTCTCTCCTCGCTTAAATCCTCGCCACCCCGGAGTCACCTAGTGCAG” it is 11100 fluorescence intensity (a.u.); for “CTCTCCTATAAATCTCGCCGGCCGTCCTCACATCAGCGCACGGAGTCACCTAGTGCAG” it is 9650 fluorescence intensity (a.u.).

“GGAAAAATACTACCCGTCCTCTGCTTCTCTCTTTCTTTCTCGGAGTCACCTAGTGCAG”: the binding signal was 8870 fluorescence intensity (a.u.). The figure for “GGATTTTAGAACTTGCAGCCTCGTATTTTTATTTATGCTTCGGAGTCACCTAGTGCAG” is 11700 fluorescence intensity (a.u.); for “CGGATGGGGCTAAGGTCGTCGGGGTAGGCGGCGCGGACATCGGAGTCACCTAGTGCAG” it is 10900 fluorescence intensity (a.u.). The figure for “ATCAACCGCCGTCTCTTCCATTCTCAACTCCAATCCTCATCGGAGTCACCTAGTGCAG” is 9690 fluorescence intensity (a.u.); for “CTATAGCTCAACAAATGGTTTCGCTCGTCACTCTTTCTTTCGGAGTCACCTAGTGCAG” it is 8050 fluorescence intensity (a.u.). The figure for “TCGTCACGCTGTTATTCTCTCTTCGATTTGTTTATCAATTCGGAGTCACCTAGTGCAG” is 8600 fluorescence intensity (a.u.); for “CACACCTCACAACGCCCCTTACGCCCACGCGAGCGAACCCCGGAGTCACCTAGTGCAG” it is 8240 fluorescence intensity (a.u.). Consider “GCCCACATCCATCCCGTCACCCGCCCACTCGCCGTCGCACCGGAGTCACCTAGTGCAG”, for which the binding signal is 10300 fluorescence intensity (a.u.). The figure for “CTGCCGAAGCAACGGATCTGAATCTACGTACCGAGCTTGTCGGAGTCACCTAGTGCAG” is 64600 fluorescence intensity (a.u.); for “CTCTCGCCTCGCCTCGGCGTCGCGCGCCGCGCGCCGTTTTCGGAGTCACCTAGTGCAG” it is 9580 fluorescence intensity (a.u.); for “TCCGTATTTTAATGTATGACGCCGTTGACTTTTTATCCAACGGAGTCACCTAGTGCAG” it is 21400 fluorescence intensity (a.u.). Turning to “TTCGCGCGCAACTCCTTAAACCCTAGCCGCCGCCGCCGCCCGGAGTCACCTAGTGCAG”, the binding signal was 9270 fluorescence intensity (a.u.). Consider “CCAGTCACCACCATGAACTTATTGCCATTGACCTGCTTACCGGAGTCACCTAGTGCAG”, for which the binding signal was 9360 fluorescence intensity (a.u.). The figure for “TTCTGGTTTGCTTCAATGGCTTGAATTCACAAAACTTAGTCGGAGTCACCTAGTGCAG” is 9640 fluorescence intensity (a.u.); for “GGTGTGTTTGGTTGGGTGGATGAACTCGGATGGGAGATGGCGGAGTCACCTAGTGCAG” it is 10800 fluorescence intensity (a.u.).

“CTATCTACCACAAGGCCAAGTTACGTTAGACCGTTTTGATCGGAGTCACCTAGTGCAG”: the binding signal is 8660 fluorescence intensity (a.u.). As for “AATATGGCCCGTTATCATCACCATTGGTTCCTACAGTAGTCGGAGTCACCTAGTGCAG”, the binding signal was 8510 fluorescence intensity (a.u.). Take “CGTCGACCCACTGCTGCCGGCCTCGCGAGTTCACCCACCACGGAGTCACCTAGTGCAG”: the binding signal was 8310 fluorescence intensity (a.u.). The figure for “CCTCCCGATCGACGCCTTCTGCTGCTTCTGATTCGCCGCTCGGAGTCACCTAGTGCAG” is 8500 fluorescence intensity (a.u.); for “CCATCGCTGTCGCCAATTTATATTCTTTCTTAATCTCGACCGGAGTCACCTAGTGCAG” it is 9220 fluorescence intensity (a.u.).

For “CCGCCTACCACCCGTGCCCCGACCCATTACATGTGCACACCGGAGTCACCTAGTGCAG”, the binding signal was 11600 fluorescence intensity (a.u.). Regarding “AGGTTTTGTTCTGAGGAATTTCTCTCTTCTTTTTTTTTCTCGGAGTCACCTAGTGCAG”, the binding signal was 10500 fluorescence intensity (a.u.). The figure for “TCACAGTACTCCTTCACAACCGTGTCCTTGATTCTGGAACCGGAGTCACCTAGTGCAG” is 9070 fluorescence intensity (a.u.); for “GCTGACGCACAAGAATTCTTTTTTTCTCTCAAAATCTTTTCGGAGTCACCTAGTGCAG” it is 8860 fluorescence intensity (a.u.); for “CTGCATTCCTATCCAAGCTCGCCTTAACCGCCGAATCTCCCGGAGTCACCTAGTGCAG” it is 8380 fluorescence intensity (a.u.). The figure for “TTCTACCTCGCATTTCTCTCATCTCCCTTTCCACAATTCCCGGAGTCACCTAGTGCAG” is 8990 fluorescence intensity (a.u.); for “TTTGGCACAGCATCACATATATGTTTGACTCTACATTCTCCGGAGTCACCTAGTGCAG” it is 8100 fluorescence intensity (a.u.). The figure for “CCTCCGACCTAAAATATAACAACTTTCAGCCTCTAGAATTCGGAGTCACCTAGTGCAG” is 8910 fluorescence intensity (a.u.). In the case of “CCATATATGTTTTTTTACTATACTATTTTATCTATATAGTCGGAGTCACCTAGTGCAG”, the binding signal was 10300 fluorescence intensity (a.u.).

For the sequence “TTCCGCCCACAGCCGCCGGAGCCACCTCCCGCTCCTCTCCCGGAGTCACCTAGTGCAG”, the binding signal is 8440 fluorescence intensity (a.u.).

On to “ACACTTTGATCCCGATCGATGGCGCCATCCACTAATTGATCGGAGTCACCTAGTGCAG”, for which the binding signal was 10700 fluorescence intensity (a.u.).
